# ± gives the standard deviation. The entries are a selection whose mix differs from that of the whole data set. Many of these values have a large error.
# System: MIWI (PIWIL1) piRISC loaded with piRNA #1 (30 nt)
# Experiment: pre-steady-state target cleavage rate (min^-1); MIWI and MILI are mouse PIWI proteins and EfPiwi is from a freshwater sponge; tags in brackets are library labels; higher = faster piRNA-guided slicing of the target
# Details: guide: piRNA #1 5'p-UGAGGUAGUAGGUUGUAUAGUAUCCAGAGG; auxiliary factor: 500 nM mouse GTSF1
# Procedure, shortened: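 Cleave-'n-Seq: a transcribed, DNA-blocked target RNA library (0.1 nM) was mixed with 1 nM active affinity-purified piRISC carrying one synthetic guide, with or without 500 nM GTSF1 partner protein, in HEPES–potassium acetate buffer at 33 °C for 0–8 or 0–960 min. Uncleaved targets were sequenced and normalised to depth and to weakly complementary targets. Three trials were pooled, and k3 was capped at 0.0001 min^-1. The pre-steady-state cleavage rate came from a burst-and-steady-state fit.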
row,Sequence,pre-steady-state target cleavage rate
1,GGAGACCAUACUAUUCUACCUACUACCUCA,0.224 ± 0.035
2,GGACUGGAUACUAUACAACCUAGUACCACA,0.00142 ± 0.0063
3,GGAGUGGAUACUAUAGAACCUACUACCUCA,1.34 ± 0.076
4,GCUCUGGAUACUAUACAAGCUACUAGCUCA,0.745 ± 0.073
5,GGACUGGAUACUAUACAAGGAACUACCUCA,0.00253 ± 0.0037
6,GCUCUGGAUACUAUACAAGGAUGAUGGAGA [g13:g29:cont:t1A],0.000409 ± 0.021
7,GGAGACCUAUGAUUACAUCCUACUACGUCA,0.00195 ± 0.0031
8,GGAGACCUAUCUAAACAACCAACUACCUCA,0.00114 ± 0.0047
9,GGAGAGGAUACUAUUCAACCUACUACCUCA,1.23 ± 0.062
10,GCUCUGGAUACUAUACUUGGAUGAUGGAGA [g15:g29:cont:t1A],0.000386 ± 0.018
11,GGUGUGCAUACUAUACAACCUACUACCUCA,1.73 ± 0.1
12,GCUCUGGAUACUUAUACAACCUACUACCUCA,1.53 ± 0.084
13,GGAGACCUAUGAUUACGACCUACUACCUCA,0.000644 ± 0.0039
14,CCCCUGGAUACUAUACAACCUACUACCUCA,2.45 ± 0.15
15,GGACUGGAUACUAUACAACCUACUUCCACA,0.000349 ± 0.014
16,GGAGACCUAUGAUUACAACCGUACUACCUCA,0.000282 ± 0.0099
17,CCUCUGGAUACUAUACAACGAUCUACCUCA,0.00132 ± 0.0091
18,GGACUGGAUACUAUACAACCUCUACCUCA,0.000972 ± 0.0079
19,GGAGACCUUUCUAUACAACCUAGUACCUCA,0.238 ± 0.034
20,GCUCUGGAUACUAUACAACCUUGAUGGAGA [g10:g29:cont:t1A],0.00238 ± 0.0048

# Some of the entries so far, tab-delimited.
row	Sequence	pre-steady-state target cleavage rate
15	GGACUGGAUACUAUACAACCUACUUCCACA	0.000349 ± 0.014
16	GGAGACCUAUGAUUACAACCGUACUACCUCA	0.000282 ± 0.0099
17	CCUCUGGAUACUAUACAACGAUCUACCUCA	0.00132 ± 0.0091

# Further entries follow.

row,Sequence,pre-steady-state target cleavage rate
1,GGACUGGAUACCUAUACAACCUACUACCUCA,1.15 ± 0.095
2,CCUCUGCAUACUAUACAACCUACUACCUCA,2.01 ± 0.12
3,GGAGACCUAUGAUAUCAACCUACCUACCUCA,0.000909 ± 0.0049
4,GGUCUGGAUACUAUAUAACCUACUACCUCA,1.86 ± 0.1
5,GCUCUGGAUACUAUACAACCCUACUACCUCA,0.00284 ± 0.0037
6,GGAGACCUAUGAUAACAAGCUACUACCUGA,0.000257 ± 0.0098
7,GGUCUGGUUACUAUACAACCUACUACCACA,0.747 ± 0.068
8,GGAGACCUAUGUAUAGAACGUACUACCUCA,0.000547 ± 0.0029
9,CCUCUGGAUACUAAACAACCUACAACCUCA,1.48 ± 0.12
10,GCUCUGGAUACUAAACAACCUACAACCUCA,1.23 ± 0.089
11,CCUCUGCGAUACUAUACAACCUACUACCUCA,2.19 ± 0.12
12,CCUCUGGAUAGUAUACAACGUACUACCUCA,0.0367 ± 0.011
13,GGAGACCUAUCUAUACACCUACUACCUCA,0.00142 ± 0.0045
14,GGUCUGCGAUACUAUACAACCUACUACCUCA,1.79 ± 0.071
15,GGAGACCUAUGAUUACUACCUACUAGCUCA,0.000178 ± 0.019
16,GGAGACCAUACUUACAACCUACUACCUCA,0.269 ± 0.028
17,GGAGACCUAUGAUAUCUAACCUACUACCUCA,0.000143 ± 0.021
18,CCUCUGGAUACUAUACAACCUACCUACCUCA,1.8 ± 0.11
19,GGUCAGGAUACUUUACAACCUACUACCUCA,1.54 ± 0.085
20,GGUCUGGAUACUAUACAACCUUGAACCUCA,0.000225 ± 0.019

# From the supplement of paper PMC10338343
